# In the supplement of paper PMC8728848:
# Some of the results follow.
# B1: GS7807G-bfa-506-18-506 (Bacteroides fragilis) (protein)
# chain: ASCDKFDEINTDPDATTKVTSSLLATGLLLDITSSSASKSFIYDELLAKQMAWGESMEDYQYNVFGRSGFGGYTTLINAQKMVESVSDDNVNAYDGLAHFIKAYKIFYMSMEMGDLPYEEALQGELGLVRPKYNTQKEVMNFILSDLETAYELFSTAKDFDGDPILGGSISKWKKATTAFQLKVLMHLSKKESDADLKVKERFARIVASGSLMESNEDNLQMKYADKANTVYPFHNTNTKHAGYAMLSTMLIDKFKATGDIRMFYYAKPAKAKLNEGVTADSWDAYIGTDPSLPFEQIEKAYATEQYSGFNARYTDYPSGEPVVRLGYAEQNFILAEAAVRGWISGDASAYYKKAIRAHMEFIASNTPDEEVYHHGHPITEEAIAAFLETPAIQLSGEKEEDIEKILTQRYLASFMQHPYDVYYDYRRTGYPVLPINPATNRNTMNDRLPMRWMYPKSESDYNLEHQNEALERQFGGVDDVNKLMWILQ
# Tests used:
# Test in all cases: glycan array binding signal (z-score within array); higher = stronger binding
# Conditions in all cases: glycan notation: IUPAC condensed, linker removed
# GalNAc(b1-3)Gal = biological target: GalNAc(b1-3)Gal
# Summary of the method: (§1)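 Glycan array binding is given as a within-array Z-score, which can be read as non-binding when negative. The arrays, 3228 of them, came from the Consortium for Functional Glycomics database and were retained only where the protein sequence was available. Z-scores were averaged across arrays of the same protein sequence at different concentrations or buffers and across linkers.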
# [1] = biological target: GalNAc(b1-3)Gal(a1-4)Gal(b1-4)GlcNAc
# Summary of the method: as §1
# [2] = biological target: GalNAc(b1-3)Gal(a1-4)Gal(b1-4)GlcNAc(b1-3)Gal(b1-4)Glc
# Summary of the method: as §1
# [3] = biological target: GalNAc(b1-3)Gal(a1-6)Gal(b1-4)Glc
# Summary of the method: as §1
# GalNAc(b1-3)GalNAc = biological target: GalNAc(b1-3)GalNAc
# Summary of the method: as §1
# GalNAc(b1-3)GlcNAc = biological target: GalNAc(b1-3)GlcNAc
# Summary of the method: as §1
# GalNAc(b1-4)Gal(b1-4)Glc = biological target: GalNAc(b1-4)Gal(b1-4)Glc
# Summary of the method: as §1
# GalNAc(b1-4)GlcNAc = biological target: GalNAc(b1-4)GlcNAc
# Summary of the method: as §1
# [4] = biological target: GalNAc(b1-4)GlcNAc(b1-2)Man
# Summary of the method: as §1
# [5] = biological target: GalNAc(b1-4)GlcNAc(b1-2)Man(a1-3)[GalNAc(b1-4)GlcNAc(b1-2)Man(a1-6)]Man(b1-4)GlcNAc(b1-4)GlcNAc
# Summary of the method: as §1
# [6] = biological target: GalNAc(b1-4)GlcNAc(b1-3)GalNAc(b1-4)GlcNAc
# Summary of the method: as §1
# GalNAc(b1-4)GlcNAc6S = biological target: GalNAc(b1-4)GlcNAc6S
# Summary of the method: as §1
# GalNAc(b1-6)GalNAc = biological target: GalNAc(b1-6)GalNAc
# Summary of the method: as §1
# GalNAc3S(b1-4)GlcNAc = biological target: GalNAc3S(b1-4)GlcNAc
# Summary of the method: as §1
# GalNAc3S(b1-4)GlcNAc3S = biological target: GalNAc3S(b1-4)GlcNAc3S
# Summary of the method: as §1
# [7] = biological target: GalNAc3S(b1-4)[Fuc(a1-3)]GlcNAc
# Summary of the method: as §1
# GalNAc4S6S(b1-4)GlcNAc = biological target: GalNAc4S6S(b1-4)GlcNAc
# Summary of the method: as §1
# GalNAc6S(b1-4)GlcNAc = biological target: GalNAc6S(b1-4)GlcNAc
# Summary of the method: as §1
# Glc(a1-4)Glc = biological target: Glc(a1-4)Glc
# Summary of the method: as §1
# [8] = biological target: Glc(a1-4)Glc(a1-4)Glc(a1-4)Glc
# Summary of the method: as §1
# Glc(a1-6)Glc(a1-6)Glc = biological target: Glc(a1-6)Glc(a1-6)Glc
# Summary of the method: as §1
# [9] = biological target: Glc(a1-6)Glc(a1-6)Glc(a1-6)Glc
# Summary of the method: as §1
# Glc(b1-4)Glc = biological target: Glc(b1-4)Glc
# Summary of the method: as §1
# Glc(b1-6)Glc = biological target: Glc(b1-6)Glc
# Summary of the method: as §1
# GlcA(b1-3)Gal = biological target: GlcA(b1-3)Gal
# Summary of the method: as §1
# GlcA(b1-3)GlcNAc = biological target: GlcA(b1-3)GlcNAc
# Summary of the method: as §1
# GlcA(b1-6)Gal = biological target: GlcA(b1-6)Gal
# Summary of the method: as §1
# [10] = biological target: GlcA3S(b1-3)Gal(b1-4)GlcNAc(b1-2)Man
# Summary of the method: as §1
# [11] = biological target: GlcA3S(b1-3)Gal(b1-4)GlcNAc(b1-3)Gal(b1-4)Glc
# Summary of the method: as §1
# [12] = biological target: GlcNAc(a1-3)Gal(b1-4)GlcNAc
# Summary of the method: as §1
# [13] = biological target: GlcNAc(a1-4)Gal(b1-3)GlcNAc
# Summary of the method: as §1
# [14] = biological target: GlcNAc(a1-4)Gal(b1-4)GalNAc
# Summary of the method: as §1
# [15] = biological target: GlcNAc(a1-4)Gal(b1-4)GlcNAc
# Summary of the method: as §1
# [16] = biological target: GlcNAc(a1-4)Gal(b1-4)GlcNAc(b1-3)Gal(b1-4)Glc
# Summary of the method: as §1
# [17] = biological target: GlcNAc(a1-4)Gal(b1-4)GlcNAc(b1-3)Gal(b1-4)GlcNAc
# Summary of the method: as §1
# [18] = biological target: GlcNAc(a1-4)Gal(b1-4)GlcNAc(b1-3)Gal(b1-4)GlcNAc(b1-3)Gal(b1-4)GlcNAc
# Summary of the method: as §1
# [19] = biological target: GlcNAc(a1-4)Gal(b1-4)GlcNAc(b1-3)Gal(b1-4)[Fuc(a1-3)]GlcNAc(b1-3)Gal(b1-4)[Fuc(a1-3)]GlcNAc
# Summary of the method: as §1
# [20] = biological target: GlcNAc(a1-6)Gal(b1-4)GlcNAc
# Summary of the method: as §1
binder,measurement,setting,value
B1,glycan array binding signal (z-score),GalNAc(b1-3)Gal,0.939
same,glycan array binding signal (z-score),[1],0.266
same,glycan array binding signal (z-score),[2],-0.567
same,glycan array binding signal (z-score),[3],-0.594
same,glycan array binding signal (z-score),GalNAc(b1-3)GalNAc,-0.744
same,glycan array binding signal (z-score),GalNAc(b1-3)GlcNAc,0.616
same,glycan array binding signal (z-score),GalNAc(b1-4)Gal(b1-4)Glc,2.04
same,glycan array binding signal (z-score),GalNAc(b1-4)GlcNAc,0.77
same,glycan array binding signal (z-score),[4],1.89
same,glycan array binding signal (z-score),[5],0.171
same,glycan array binding signal (z-score),[6],-0.295
same,glycan array binding signal (z-score),GalNAc(b1-4)GlcNAc6S,-0.234
same,glycan array binding signal (z-score),GalNAc(b1-6)GalNAc,-0.486
same,glycan array binding signal (z-score),GalNAc3S(b1-4)GlcNAc,-0.649
same,glycan array binding signal (z-score),GalNAc3S(b1-4)GlcNAc3S,-0.726
same,glycan array binding signal (z-score),[7],-0.216
same,glycan array binding signal (z-score),GalNAc4S6S(b1-4)GlcNAc,-0.716
same,glycan array binding signal (z-score),GalNAc6S(b1-4)GlcNAc,1.98
same,glycan array binding signal (z-score),Glc(a1-4)Glc,-1.02
same,glycan array binding signal (z-score),[8],-0.339
same,glycan array binding signal (z-score),Glc(a1-6)Glc(a1-6)Glc,-0.914
same,glycan array binding signal (z-score),[9],-0.402
same,glycan array binding signal (z-score),Glc(b1-4)Glc,-0.922
same,glycan array binding signal (z-score),Glc(b1-6)Glc,-0.717
same,glycan array binding signal (z-score),GlcA(b1-3)Gal,-0.386
same,glycan array binding signal (z-score),GlcA(b1-3)GlcNAc,-0.379
same,glycan array binding signal (z-score),GlcA(b1-6)Gal,2.31
same,glycan array binding signal (z-score),[10],-0.372
same,glycan array binding signal (z-score),[11],0.312
same,glycan array binding signal (z-score),[12],-0.747
same,glycan array binding signal (z-score),[13],-0.767
same,glycan array binding signal (z-score),[14],-0.899
same,glycan array binding signal (z-score),[15],-0.649
same,glycan array binding signal (z-score),[16],-0.832
same,glycan array binding signal (z-score),[17],-0.812
same,glycan array binding signal (z-score),[18],-0.892
same,glycan array binding signal (z-score),[19],1.28
same,glycan array binding signal (z-score),[20],-0.271

# As a short view, some entries already given:
binder,measurement,setting,value
B1,glycan array binding signal (z-score),[8],-0.339
same,glycan array binding signal (z-score),Glc(a1-6)Glc(a1-6)Glc,-0.914
same,glycan array binding signal (z-score),[9],-0.402
same,glycan array binding signal (z-score),Glc(b1-4)Glc,-0.922
same,glycan array binding signal (z-score),Glc(b1-6)Glc,-0.717
same,glycan array binding signal (z-score),GlcA(b1-3)Gal,-0.386
same,glycan array binding signal (z-score),GlcA(b1-3)GlcNAc,-0.379
same,glycan array binding signal (z-score),GlcA(b1-6)Gal,2.31
